Measured values reported in article PMC8933003.
Results are given in words; binding and its absence hold for the method and conditions named. In cells and extracts the contact can be indirect. Some entries that bind do so weakly or less than the wild type.

Chains of the proteins cited; added tags and fusions are not shown. Residues count along the entry.
UniProt O08852, residues 24-4293: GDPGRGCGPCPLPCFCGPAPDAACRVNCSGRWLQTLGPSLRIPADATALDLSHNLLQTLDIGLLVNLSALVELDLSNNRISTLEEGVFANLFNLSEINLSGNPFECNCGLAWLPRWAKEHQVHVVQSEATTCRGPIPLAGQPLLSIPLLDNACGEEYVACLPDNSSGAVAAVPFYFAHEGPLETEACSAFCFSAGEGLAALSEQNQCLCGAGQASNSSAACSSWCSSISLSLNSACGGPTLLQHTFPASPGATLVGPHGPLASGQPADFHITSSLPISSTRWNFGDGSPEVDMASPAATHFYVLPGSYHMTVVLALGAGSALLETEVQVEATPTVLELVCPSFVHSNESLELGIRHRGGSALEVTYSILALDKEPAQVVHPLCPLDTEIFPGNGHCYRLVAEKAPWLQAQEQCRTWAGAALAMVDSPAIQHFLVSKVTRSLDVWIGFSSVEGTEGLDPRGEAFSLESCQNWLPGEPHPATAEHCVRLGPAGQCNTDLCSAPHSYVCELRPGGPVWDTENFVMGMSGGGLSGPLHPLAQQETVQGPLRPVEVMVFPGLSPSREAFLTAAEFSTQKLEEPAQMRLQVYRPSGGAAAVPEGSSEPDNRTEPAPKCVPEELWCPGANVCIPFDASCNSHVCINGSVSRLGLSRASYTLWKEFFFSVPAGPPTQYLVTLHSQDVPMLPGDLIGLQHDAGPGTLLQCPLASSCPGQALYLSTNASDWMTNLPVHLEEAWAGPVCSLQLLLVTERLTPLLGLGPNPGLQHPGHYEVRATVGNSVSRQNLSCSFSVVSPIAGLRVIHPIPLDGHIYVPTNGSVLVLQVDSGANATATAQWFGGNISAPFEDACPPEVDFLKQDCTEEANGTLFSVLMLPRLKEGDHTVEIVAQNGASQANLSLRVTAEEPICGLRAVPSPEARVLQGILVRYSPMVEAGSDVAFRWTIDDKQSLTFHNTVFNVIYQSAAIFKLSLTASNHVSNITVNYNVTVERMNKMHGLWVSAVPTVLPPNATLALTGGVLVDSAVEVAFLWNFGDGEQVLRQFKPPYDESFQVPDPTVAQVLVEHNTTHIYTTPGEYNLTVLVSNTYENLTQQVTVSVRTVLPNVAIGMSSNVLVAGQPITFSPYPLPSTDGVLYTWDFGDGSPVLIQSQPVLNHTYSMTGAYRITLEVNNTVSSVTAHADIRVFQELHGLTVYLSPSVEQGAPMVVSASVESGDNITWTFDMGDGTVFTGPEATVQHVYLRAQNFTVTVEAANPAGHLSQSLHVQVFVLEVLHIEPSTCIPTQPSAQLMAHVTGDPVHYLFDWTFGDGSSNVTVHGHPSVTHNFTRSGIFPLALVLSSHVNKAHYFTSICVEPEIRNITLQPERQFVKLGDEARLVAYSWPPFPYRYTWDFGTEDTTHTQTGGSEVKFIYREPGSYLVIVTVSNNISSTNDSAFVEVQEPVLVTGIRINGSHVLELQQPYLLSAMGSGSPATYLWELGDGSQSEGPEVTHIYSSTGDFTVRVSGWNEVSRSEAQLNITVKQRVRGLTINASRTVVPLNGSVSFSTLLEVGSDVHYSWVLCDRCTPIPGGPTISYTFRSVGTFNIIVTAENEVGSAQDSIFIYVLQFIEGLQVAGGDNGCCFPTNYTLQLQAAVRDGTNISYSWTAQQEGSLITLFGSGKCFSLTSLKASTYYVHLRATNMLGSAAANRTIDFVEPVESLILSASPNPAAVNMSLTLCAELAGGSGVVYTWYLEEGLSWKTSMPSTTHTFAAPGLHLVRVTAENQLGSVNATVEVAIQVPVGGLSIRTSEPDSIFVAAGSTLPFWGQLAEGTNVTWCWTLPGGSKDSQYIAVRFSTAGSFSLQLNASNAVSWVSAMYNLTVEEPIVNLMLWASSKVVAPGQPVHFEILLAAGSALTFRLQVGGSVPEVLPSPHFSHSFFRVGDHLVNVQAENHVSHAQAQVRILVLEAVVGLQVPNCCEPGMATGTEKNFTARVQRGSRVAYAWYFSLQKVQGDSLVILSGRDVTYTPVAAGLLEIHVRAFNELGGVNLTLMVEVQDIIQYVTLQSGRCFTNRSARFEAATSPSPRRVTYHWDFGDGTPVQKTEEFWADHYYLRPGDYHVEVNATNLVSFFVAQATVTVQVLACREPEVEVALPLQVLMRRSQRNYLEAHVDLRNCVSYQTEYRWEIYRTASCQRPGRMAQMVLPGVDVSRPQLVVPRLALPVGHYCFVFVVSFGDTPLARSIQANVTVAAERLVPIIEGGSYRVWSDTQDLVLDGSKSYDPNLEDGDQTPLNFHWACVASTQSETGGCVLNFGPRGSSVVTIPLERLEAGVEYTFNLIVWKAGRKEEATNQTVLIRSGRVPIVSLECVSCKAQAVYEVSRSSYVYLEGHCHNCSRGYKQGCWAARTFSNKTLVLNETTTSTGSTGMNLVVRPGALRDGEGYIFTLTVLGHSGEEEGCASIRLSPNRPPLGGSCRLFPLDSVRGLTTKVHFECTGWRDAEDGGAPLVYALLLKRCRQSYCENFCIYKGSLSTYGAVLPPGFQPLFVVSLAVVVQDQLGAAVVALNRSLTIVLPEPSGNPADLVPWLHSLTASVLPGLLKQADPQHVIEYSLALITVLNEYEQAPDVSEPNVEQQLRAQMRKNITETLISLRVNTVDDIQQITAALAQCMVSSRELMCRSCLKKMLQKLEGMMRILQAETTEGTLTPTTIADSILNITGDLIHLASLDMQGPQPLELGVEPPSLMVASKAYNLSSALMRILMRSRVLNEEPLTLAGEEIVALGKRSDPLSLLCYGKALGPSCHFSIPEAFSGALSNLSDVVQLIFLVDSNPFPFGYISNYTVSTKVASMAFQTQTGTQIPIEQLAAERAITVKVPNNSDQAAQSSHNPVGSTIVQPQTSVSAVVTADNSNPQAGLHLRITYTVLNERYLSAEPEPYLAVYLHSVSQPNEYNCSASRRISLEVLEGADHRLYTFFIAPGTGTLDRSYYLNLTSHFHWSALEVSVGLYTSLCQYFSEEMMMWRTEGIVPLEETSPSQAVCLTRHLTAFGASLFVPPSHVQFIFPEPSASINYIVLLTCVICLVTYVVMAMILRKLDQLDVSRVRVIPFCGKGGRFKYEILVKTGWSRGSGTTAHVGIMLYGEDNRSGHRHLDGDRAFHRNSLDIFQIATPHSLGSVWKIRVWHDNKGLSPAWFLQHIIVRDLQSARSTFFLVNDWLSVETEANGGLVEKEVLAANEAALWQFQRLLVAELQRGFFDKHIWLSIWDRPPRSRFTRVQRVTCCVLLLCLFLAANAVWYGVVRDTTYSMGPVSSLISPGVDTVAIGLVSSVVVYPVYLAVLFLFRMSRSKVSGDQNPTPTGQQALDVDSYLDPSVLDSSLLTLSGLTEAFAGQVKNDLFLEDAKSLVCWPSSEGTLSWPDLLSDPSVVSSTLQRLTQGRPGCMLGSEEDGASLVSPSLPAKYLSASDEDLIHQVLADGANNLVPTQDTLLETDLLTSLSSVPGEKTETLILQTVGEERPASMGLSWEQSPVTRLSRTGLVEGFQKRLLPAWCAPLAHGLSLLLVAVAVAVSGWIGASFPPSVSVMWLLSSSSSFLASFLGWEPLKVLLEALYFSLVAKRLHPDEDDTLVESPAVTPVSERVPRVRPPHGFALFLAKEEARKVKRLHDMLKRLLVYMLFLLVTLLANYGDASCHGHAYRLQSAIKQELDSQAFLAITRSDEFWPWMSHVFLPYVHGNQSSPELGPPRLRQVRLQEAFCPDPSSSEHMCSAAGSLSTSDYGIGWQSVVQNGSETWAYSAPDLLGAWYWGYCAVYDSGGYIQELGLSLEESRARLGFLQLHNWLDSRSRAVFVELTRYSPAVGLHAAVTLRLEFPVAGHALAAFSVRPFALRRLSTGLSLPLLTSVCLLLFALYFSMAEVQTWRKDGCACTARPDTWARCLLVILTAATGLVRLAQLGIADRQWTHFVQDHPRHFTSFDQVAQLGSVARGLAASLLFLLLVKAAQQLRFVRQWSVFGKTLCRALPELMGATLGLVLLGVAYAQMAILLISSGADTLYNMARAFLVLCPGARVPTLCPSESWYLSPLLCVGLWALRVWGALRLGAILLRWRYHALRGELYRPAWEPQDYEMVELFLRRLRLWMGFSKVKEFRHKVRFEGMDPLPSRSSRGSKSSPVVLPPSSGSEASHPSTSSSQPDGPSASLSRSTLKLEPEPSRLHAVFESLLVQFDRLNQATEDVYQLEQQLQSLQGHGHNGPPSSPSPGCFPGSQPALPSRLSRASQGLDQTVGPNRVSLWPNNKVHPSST

Target: T1, Polycystin-2 (mouse (endogenous in mesenteric arteries)) (UniProt O35245)
T1 sequence: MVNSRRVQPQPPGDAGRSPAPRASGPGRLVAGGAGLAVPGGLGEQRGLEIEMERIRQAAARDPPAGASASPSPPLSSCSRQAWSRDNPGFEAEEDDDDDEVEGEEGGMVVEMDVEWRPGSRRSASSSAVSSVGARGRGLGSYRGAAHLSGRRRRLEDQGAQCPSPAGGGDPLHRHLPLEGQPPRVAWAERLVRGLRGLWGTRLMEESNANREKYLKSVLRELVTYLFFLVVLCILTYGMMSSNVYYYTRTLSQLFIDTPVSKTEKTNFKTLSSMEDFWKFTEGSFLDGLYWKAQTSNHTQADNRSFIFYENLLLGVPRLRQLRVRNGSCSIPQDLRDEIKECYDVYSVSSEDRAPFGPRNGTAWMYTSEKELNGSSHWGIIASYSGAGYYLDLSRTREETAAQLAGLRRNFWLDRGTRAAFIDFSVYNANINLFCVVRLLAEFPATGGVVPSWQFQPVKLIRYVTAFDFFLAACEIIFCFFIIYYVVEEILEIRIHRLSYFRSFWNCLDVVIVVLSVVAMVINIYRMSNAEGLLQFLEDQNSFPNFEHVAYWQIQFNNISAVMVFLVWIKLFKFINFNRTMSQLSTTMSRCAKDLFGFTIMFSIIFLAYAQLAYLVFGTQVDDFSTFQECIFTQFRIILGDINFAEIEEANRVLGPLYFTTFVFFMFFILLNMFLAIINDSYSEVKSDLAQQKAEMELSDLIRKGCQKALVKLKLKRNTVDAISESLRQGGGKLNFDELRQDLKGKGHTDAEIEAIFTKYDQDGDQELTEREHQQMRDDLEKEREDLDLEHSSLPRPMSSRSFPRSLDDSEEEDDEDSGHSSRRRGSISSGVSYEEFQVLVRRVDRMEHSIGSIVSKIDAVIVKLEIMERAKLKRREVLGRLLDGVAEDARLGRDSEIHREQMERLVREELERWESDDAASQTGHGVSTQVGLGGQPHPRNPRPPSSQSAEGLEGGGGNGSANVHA
Assay: co-IP; mouse mesenteric artery lysate (second- to fifth-order vessels); PC-2 antibody (1:20) covalently bound to protein A/G magnetic beads (Pierce crosslink magnetic IP/co-IP kit), overnight at 4°C; immunoprecipitates analyzed by Western blotting

- binding: binds
Substance: Polycystin-1 (from UniProt O08852 24-4293)
